Results from PMC5388395.

Chains of the proteins cited; added tags and fusions are not shown.
UniProt Q03330: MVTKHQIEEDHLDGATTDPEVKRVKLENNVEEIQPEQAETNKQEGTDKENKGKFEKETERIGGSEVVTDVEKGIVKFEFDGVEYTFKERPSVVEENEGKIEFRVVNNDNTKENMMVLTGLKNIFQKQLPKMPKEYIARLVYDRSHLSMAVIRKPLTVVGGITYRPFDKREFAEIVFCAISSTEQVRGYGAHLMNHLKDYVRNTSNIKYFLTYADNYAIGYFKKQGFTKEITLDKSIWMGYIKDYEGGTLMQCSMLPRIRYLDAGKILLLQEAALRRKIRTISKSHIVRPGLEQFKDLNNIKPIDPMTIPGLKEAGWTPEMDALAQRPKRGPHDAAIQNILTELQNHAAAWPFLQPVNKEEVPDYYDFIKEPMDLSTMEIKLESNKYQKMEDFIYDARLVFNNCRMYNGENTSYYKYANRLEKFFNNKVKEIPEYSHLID
UniProt P00359: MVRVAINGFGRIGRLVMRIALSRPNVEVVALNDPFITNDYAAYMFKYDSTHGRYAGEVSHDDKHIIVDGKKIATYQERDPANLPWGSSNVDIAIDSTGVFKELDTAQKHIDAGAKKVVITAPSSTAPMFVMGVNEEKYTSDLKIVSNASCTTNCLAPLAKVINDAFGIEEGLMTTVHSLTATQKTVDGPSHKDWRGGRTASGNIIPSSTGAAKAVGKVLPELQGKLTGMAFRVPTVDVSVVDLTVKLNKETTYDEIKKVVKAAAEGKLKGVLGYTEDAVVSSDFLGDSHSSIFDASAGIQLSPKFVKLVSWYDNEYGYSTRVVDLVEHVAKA
UniProt P38811: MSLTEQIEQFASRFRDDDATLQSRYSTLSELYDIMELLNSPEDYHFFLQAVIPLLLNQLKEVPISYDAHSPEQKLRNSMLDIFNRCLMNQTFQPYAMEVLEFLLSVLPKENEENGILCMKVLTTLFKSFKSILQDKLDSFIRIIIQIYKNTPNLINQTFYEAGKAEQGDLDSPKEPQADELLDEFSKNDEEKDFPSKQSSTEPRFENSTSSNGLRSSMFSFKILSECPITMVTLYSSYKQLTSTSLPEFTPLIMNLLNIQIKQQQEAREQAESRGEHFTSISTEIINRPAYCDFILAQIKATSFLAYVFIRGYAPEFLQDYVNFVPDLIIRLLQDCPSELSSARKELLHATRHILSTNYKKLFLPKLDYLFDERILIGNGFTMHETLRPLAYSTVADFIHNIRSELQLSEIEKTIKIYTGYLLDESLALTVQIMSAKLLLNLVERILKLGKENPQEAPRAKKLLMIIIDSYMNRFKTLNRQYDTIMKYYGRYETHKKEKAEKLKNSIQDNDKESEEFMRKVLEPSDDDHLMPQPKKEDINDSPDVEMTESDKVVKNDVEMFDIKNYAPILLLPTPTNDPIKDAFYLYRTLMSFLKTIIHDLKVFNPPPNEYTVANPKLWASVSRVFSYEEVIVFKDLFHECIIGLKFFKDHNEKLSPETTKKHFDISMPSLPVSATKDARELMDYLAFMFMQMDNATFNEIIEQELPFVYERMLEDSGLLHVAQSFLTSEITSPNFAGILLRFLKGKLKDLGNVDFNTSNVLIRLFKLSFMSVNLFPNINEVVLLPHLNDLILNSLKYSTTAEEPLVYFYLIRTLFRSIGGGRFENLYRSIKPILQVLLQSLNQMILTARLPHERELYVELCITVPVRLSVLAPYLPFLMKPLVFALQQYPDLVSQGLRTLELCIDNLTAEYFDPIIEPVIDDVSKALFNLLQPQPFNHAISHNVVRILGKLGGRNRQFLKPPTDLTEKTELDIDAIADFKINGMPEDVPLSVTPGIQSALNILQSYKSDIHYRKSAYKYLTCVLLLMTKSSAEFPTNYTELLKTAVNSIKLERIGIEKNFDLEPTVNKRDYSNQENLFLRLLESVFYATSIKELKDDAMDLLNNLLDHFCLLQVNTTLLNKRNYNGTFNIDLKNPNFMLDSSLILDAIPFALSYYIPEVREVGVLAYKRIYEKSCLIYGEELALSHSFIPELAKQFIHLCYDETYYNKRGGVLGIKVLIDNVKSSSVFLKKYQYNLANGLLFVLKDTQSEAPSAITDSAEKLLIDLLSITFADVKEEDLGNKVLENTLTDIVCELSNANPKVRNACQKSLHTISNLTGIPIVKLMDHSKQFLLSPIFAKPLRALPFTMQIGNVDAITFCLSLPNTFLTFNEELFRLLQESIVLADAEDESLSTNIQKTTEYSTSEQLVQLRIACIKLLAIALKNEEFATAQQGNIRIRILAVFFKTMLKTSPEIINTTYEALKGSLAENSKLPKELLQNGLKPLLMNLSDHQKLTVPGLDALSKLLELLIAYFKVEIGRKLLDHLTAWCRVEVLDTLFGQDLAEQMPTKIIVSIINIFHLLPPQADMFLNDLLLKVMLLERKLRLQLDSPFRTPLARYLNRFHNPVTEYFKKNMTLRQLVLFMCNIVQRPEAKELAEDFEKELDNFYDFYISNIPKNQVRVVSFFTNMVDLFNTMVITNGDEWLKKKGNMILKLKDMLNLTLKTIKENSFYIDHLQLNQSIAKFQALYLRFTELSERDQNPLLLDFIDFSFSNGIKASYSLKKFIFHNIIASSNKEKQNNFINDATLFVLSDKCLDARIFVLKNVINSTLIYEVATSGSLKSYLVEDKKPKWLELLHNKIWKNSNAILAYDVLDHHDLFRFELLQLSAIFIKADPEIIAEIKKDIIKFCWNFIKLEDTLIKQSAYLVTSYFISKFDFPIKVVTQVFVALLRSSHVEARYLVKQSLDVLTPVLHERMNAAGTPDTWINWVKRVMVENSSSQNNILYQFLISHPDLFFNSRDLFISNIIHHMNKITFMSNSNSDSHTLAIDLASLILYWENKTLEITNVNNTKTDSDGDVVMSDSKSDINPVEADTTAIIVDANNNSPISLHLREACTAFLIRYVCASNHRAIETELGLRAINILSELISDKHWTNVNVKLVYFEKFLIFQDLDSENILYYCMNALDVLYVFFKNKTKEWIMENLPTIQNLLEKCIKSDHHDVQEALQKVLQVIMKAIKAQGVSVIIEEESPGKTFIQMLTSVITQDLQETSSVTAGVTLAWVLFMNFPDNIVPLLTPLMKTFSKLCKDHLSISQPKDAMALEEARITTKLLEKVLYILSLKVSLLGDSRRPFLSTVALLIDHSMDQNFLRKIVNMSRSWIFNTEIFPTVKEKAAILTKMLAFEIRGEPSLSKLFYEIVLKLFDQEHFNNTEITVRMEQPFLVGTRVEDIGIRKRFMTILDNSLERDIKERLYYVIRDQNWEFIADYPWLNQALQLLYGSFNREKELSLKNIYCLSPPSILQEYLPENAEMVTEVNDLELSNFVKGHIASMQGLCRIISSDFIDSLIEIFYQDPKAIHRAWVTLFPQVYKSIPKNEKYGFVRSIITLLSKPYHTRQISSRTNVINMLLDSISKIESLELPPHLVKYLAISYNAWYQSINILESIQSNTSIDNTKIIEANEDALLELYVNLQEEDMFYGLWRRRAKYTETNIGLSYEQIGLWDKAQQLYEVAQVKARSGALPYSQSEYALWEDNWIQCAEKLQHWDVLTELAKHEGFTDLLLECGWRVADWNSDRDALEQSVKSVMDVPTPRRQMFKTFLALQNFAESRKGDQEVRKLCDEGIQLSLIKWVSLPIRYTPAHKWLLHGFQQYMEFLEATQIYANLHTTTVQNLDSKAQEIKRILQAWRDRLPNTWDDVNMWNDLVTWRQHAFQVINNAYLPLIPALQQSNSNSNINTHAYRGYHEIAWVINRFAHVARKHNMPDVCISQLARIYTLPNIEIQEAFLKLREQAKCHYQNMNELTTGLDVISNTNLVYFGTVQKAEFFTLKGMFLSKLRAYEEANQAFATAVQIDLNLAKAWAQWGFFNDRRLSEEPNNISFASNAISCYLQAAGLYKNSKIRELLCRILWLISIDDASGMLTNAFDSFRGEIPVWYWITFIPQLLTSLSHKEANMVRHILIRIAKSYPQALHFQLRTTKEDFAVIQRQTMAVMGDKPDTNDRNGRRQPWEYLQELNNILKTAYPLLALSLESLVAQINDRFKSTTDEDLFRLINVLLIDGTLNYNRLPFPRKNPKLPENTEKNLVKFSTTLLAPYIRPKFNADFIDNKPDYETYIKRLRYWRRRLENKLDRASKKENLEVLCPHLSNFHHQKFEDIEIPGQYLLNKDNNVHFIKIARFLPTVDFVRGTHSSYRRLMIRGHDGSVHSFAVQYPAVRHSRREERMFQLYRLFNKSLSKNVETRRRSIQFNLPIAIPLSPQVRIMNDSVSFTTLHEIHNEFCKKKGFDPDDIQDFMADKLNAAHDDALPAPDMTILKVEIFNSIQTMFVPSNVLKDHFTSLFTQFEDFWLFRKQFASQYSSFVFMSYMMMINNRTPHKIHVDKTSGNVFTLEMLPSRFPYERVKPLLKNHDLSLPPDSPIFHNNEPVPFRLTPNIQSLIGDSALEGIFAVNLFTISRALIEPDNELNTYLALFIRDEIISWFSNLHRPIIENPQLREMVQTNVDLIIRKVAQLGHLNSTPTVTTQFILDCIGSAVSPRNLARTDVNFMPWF
UniProt P35177: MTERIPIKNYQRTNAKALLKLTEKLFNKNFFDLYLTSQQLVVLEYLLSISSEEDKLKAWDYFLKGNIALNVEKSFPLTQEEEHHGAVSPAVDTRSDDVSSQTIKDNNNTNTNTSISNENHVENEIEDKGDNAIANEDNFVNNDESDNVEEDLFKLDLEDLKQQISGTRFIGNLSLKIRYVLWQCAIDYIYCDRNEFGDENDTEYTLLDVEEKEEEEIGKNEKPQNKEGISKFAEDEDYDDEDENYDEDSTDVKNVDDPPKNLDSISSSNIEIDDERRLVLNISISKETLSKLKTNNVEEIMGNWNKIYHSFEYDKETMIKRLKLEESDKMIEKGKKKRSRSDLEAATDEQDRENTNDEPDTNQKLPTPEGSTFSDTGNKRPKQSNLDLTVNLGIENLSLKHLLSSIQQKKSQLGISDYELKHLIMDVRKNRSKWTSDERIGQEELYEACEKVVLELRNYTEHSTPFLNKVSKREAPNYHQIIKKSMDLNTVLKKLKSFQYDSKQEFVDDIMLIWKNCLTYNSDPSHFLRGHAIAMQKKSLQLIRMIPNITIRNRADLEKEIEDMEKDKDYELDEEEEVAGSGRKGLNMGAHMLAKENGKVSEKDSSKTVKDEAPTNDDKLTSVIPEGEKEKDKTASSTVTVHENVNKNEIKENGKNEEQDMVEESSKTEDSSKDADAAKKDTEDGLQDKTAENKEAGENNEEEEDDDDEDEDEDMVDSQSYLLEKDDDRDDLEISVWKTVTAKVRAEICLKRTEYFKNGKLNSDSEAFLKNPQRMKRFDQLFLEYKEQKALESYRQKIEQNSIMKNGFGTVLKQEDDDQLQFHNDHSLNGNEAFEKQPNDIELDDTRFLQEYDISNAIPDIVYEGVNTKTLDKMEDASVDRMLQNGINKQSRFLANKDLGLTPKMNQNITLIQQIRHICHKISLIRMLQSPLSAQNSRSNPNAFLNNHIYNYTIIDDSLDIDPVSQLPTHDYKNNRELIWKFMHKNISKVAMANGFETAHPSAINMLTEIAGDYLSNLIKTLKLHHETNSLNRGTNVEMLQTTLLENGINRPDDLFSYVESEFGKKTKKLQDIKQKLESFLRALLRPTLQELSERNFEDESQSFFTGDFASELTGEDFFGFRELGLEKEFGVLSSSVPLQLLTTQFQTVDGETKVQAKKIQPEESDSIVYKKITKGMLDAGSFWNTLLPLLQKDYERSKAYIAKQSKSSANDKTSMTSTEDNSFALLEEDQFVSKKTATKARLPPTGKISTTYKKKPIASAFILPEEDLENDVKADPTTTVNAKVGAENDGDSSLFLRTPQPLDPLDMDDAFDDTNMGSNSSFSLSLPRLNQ

T1: Ada1-TAP (S. cerevisiae) (UniProt Q12060)
T1 sequence: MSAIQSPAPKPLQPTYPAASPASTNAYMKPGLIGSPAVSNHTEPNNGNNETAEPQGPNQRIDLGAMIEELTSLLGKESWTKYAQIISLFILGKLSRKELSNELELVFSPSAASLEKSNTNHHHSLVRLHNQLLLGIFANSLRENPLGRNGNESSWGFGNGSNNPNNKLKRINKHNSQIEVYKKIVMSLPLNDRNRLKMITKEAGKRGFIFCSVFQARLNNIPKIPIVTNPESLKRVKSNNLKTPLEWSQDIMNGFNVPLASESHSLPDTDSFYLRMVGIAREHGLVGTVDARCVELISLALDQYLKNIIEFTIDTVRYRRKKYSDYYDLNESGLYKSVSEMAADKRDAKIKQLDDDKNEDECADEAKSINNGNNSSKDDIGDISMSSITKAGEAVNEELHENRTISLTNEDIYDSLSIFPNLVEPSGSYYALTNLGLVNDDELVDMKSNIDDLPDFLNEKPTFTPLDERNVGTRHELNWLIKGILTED


Legend:
Gcn5-TAP (S. cerevisiae) [1] = target: Gcn5-TAP (S. cerevisiae) (UniProt Q03330); experiment: affinity purification with mass spectrometry; single affinity purification step of the TAP-tagged subunit, SDS-PAGE, coomassie staining, bands identified by mass spectrometry; WT and not5Δ cells
Gcn5-TAP (S. cerevisiae) [2] = target: Gcn5-TAP (S. cerevisiae) (UniProt Q03330); experiment: affinity purification with mass spectrometry; quantitative mass spectrometry of Gcn5 purified from WT and not5Δ, total purified proteins and SAGA-sized complexes
Ada1-TAP (S. cerevisiae) = target: T1, Ada1-TAP (S. cerevisiae); experiment: affinity purification with mass spectrometry; single affinity purification step of the TAP-tagged subunit, SDS-PAGE, coomassie staining, bands identified by mass spectrometry; WT and not5Δ cells

binding (Gcn5-TAP (S. cerevisiae) [2]) | Molecule | further results
 | Tdh3 (from UniProt P00359 1-332) (enzyme) | binding (Gcn5-TAP (S. cerevisiae) [1]): binds
binds | Tra1 (from UniProt P38811 1-3744) | 
binds | Spt7 (from UniProt P35177 1-1332) | 
binds | Spt8 (protein, UniProt P38915 1-602) MDEVDDILINNQVVDDEEDDEEMLSGLENDSKQDLEGNDDGGEDEEDDDDDDEDDDDDEDEREDDDEQEDDDGEDDAARMDKTATPTNEHQHDEQKAAAAGAGGAGDSGDAVTKIGSEDVKLSDVDGGVGSREASSSTHEASANGEVYEYYKHMLNAAQIADSYNIYPTAAIPIQTHVNALAVSRGLKYLFLGGSDGYIRKYDLLNTLEGKLSLTILQKHSLAESIQNAGILQSYWENEIPQKKSEMKLSANKTDYEPKVSPVHSLEVQSECLFILSGLQNGGITMQGVRYMEGSIAHYFKGRNGHTQIVNILRLNGQEDRFLSGSWDKRLLEWDLQTGDIVNEFKKSRSELSSLEMRPLYSSVDVSGNVNSGKENENADDDMDSLFGDEDEDEKQDAGNEPVETGDGSNGEENKEQISEESLNIVYDESVFMTSGLNGSVHIWDRRMTQSPALSLERGAGVPPWCLSACWGVDGDHVYAGRRNACVEQFDLKMPSKPIHNLKLPSISGPVSCVKAMPNNKHLLCASRDNIRLYNVEIAVDASNSTTKSSKVPFLIVPGHHGGIISNLYLDPTSRFIISTSGNRGWQGNSTDTTLIYDIDLE | 
 | Spt20 (protein, UniProt P50875 1-604) MSANSPTGNDPHVFGIPVNATPSNMGSPGSPVNVPPPMNPAVANVNHPVMRTNSNSNANEGTRTLTREQIQQLQQRQRLLLQQRLLEQQRKQQALQNYEAQFYQMLMTLNKRPKRLYNFVEDADSILKKYEQYLHSFEFHIYENNYKICAPANSRLQQQQKQPELTSDGLILTKNNETLKEFLEYVARGRIPDAIMEVLRDCNIQFYEGNLILQVYDHTNTVDVTPKENKPNLNSSSSPSNNNSTQDNSKIQQPSEPNSGVANTGANTANKKASFKRPRVYRTLLKPNDLTTYYDMMSYADNARFSDSIYQQFESEILTLTKRNLSLSVPLNPYEHRDMLEETAFSEPHWDSEKKSFIHEHRAESTREGTKGVVGHIEERDEFPQHSSNYEQLMLIMNERTTTITNSTFAVSLTKNAMEIASSSSNGVRGASSSTSNSASNTRNNSLANGNQVALAAAAAAAAVGSTMGNDNNQFSRLKFIEQWRINKEKRKQQALSANINPTPFNARISMTAPLTPQQQLLQRQQQALEQQQNGGAMKNANKRSGNNATSNNNNNNNNLDKPKVKRPRKNAKKSESGTPAPKKKRMTKKKQSASSTPSSTTMS | binding (Ada1-TAP (S. cerevisiae)): binds

No constants are given. Whether binding was seen depends on the method and setting. In cells and extracts the contact can be indirect. A yes stands for co-enrichment or nearness to the bait. Other partners may have been found.
